Binding data for 7 molecules are collected here from publication PMC9563079.

The chains behind the UniProt entries cited, without tags or fusion partners.
UniProt P35222: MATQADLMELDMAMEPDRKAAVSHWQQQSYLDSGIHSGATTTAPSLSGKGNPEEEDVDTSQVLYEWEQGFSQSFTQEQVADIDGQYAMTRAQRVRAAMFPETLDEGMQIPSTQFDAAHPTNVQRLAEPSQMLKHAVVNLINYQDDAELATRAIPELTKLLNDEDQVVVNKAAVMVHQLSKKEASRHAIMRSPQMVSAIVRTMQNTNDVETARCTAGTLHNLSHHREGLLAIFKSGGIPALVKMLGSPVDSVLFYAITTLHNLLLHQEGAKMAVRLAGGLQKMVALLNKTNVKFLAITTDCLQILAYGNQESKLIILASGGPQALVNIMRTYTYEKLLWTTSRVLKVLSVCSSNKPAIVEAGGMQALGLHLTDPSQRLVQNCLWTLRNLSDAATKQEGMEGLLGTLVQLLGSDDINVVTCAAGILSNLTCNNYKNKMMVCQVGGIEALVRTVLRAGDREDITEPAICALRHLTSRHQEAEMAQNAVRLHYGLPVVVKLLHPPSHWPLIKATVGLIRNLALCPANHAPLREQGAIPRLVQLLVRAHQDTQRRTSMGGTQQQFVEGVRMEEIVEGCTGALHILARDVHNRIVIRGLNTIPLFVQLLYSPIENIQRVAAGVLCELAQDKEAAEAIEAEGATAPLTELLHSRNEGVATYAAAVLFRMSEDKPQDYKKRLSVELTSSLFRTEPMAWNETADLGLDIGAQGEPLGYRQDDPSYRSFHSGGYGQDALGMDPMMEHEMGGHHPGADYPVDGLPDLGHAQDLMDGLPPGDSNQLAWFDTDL

No constants are given. Whether binding was seen depends on the method and setting. For some assays here: Binding seen in cells or lysates may run through a third protein. Some entries that bind do so weakly or less than the wild type. For some assays here: Sequences can lack the tags named with a protein.

In assay [1] the target is T1, CUEDC2 (construct of the LSPR analysis and the peptide competition assay not stated) (UniProt Q9H467).
T1 sequence: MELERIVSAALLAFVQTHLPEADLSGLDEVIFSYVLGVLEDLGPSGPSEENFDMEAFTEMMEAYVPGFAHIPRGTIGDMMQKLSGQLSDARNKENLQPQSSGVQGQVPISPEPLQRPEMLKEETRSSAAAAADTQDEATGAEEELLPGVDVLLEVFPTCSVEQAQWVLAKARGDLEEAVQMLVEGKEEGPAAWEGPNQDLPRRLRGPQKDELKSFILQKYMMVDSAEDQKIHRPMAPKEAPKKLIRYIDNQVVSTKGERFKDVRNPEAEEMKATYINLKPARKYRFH
The experiment in a line: peptide competition assay (PCA); details in the supplementary methods, not shown.

Assay [2] addresses T2, CUEDC2 (CUE domain containing 2), over-expressed in HEK-293FT cells (UniProt Q9H467).
T2 sequence: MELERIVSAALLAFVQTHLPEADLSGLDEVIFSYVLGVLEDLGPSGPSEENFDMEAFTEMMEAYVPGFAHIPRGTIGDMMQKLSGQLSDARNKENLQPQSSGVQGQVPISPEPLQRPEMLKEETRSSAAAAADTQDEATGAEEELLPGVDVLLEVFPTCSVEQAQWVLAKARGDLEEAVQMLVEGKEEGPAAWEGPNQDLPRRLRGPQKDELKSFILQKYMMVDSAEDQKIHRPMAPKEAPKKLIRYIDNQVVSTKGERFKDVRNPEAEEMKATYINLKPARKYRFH
The experiment in a line: co-IP; exogenous Co-IP in HEK-293FT cells with over-expressed CUEDC2 or over-expressed β-catenin; antibodies against CUEDC2 or β-catenin.

Assay [3] concerns the target T3, CUEDC2, endogenous in MDA-MB-468 cells (human (endogenous in MDA-MB-468)) (UniProt Q9H467).
T3 sequence: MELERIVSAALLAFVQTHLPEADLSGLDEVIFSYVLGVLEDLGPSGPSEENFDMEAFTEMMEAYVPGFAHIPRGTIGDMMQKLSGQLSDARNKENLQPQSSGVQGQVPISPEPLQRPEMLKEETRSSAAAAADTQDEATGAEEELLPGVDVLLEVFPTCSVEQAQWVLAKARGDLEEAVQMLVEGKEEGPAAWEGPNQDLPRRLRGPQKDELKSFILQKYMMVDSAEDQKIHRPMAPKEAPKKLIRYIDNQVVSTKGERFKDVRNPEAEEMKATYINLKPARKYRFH
As to the kind of experiment: co-IP; endogenous Co-IP in MDA-MB-468 cells with basal expression of CUEDC2 and β-catenin; antibodies against CUEDC2 or β-catenin.

Assay [4] has as its target T4, CUE-Flag (Flag-labeled CUE domain of CUEDC2) (UniProt Q9H467).
T4 sequence: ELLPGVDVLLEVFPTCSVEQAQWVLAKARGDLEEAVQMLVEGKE
The experiment in a line: pull-down; Flag pull-down with purified recombinant Flag-labeled and His-labeled proteins, followed by immunoblotting; both purified. In general terms: In western blotting, separated proteins are transferred to a membrane and probed.

In another assay the target is T5, CUEDC2-Flag (UniProt Q9H467).
T5 sequence: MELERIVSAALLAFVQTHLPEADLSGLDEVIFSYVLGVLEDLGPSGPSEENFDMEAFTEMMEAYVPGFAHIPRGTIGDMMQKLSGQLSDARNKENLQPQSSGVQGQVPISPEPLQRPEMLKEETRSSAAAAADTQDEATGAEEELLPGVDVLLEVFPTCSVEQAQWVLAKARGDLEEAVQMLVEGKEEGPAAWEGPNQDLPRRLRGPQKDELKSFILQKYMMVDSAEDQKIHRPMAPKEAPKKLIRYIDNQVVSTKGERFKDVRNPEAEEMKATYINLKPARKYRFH
The description is as above.

The target in assay [5] is β-catenin, over-expressed in HEK-293FT cells (UniProt P35222). As to the kind of experiment: co-IP; exogenous Co-IP in HEK-293FT cells with over-expressed CUEDC2 or over-expressed β-catenin; antibodies against CUEDC2 or β-catenin.
Another assay concerns the target β-catenin-Flag (UniProt P35222). The experiment in a line: pull-down; Flag pull-down with purified recombinant Flag-labeled and His-labeled proteins, followed by immunoblotting; both purified.
Assay [6] concerns the target β-catenin, endogenous in MDA-MB-468 cells (human (endogenous in MDA-MB-468)) (UniProt P35222). As to the kind of experiment: co-IP; endogenous Co-IP in MDA-MB-468 cells with basal expression of CUEDC2 and β-catenin; antibodies against CUEDC2 or β-catenin.

“β-catenin (construct of the peptide competition assay not stated) (from UniProt P35222 1-781)”: in assay [1], the binding entry is “binds”. As to “β-catenin, endogenous in HEK-293FT cells (from UniProt P35222 1-781)”, the binding entry in assay [2] is recorded as “binds”.

As for “β-catenin, endogenous in MDA-MB-468 cells (from UniProt P35222 1-781)”, the binding entry in assay [3] is reported as “binds”.

For the molecule “β-catenin-His (from UniProt P35222 1-781)”, the binding result (in assay [4]; in the assay with CUEDC2-Flag) was “binds” throughout.

B1: CUEDC2, endogenous in HEK-293FT cells (protein, UniProt Q9H467 1-287)
chain: MELERIVSAALLAFVQTHLPEADLSGLDEVIFSYVLGVLEDLGPSGPSEENFDMEAFTEMMEAYVPGFAHIPRGTIGDMMQKLSGQLSDARNKENLQPQSSGVQGQVPISPEPLQRPEMLKEETRSSAAAAADTQDEATGAEEELLPGVDVLLEVFPTCSVEQAQWVLAKARGDLEEAVQMLVEGKEEGPAAWEGPNQDLPRRLRGPQKDELKSFILQKYMMVDSAEDQKIHRPMAPKEAPKKLIRYIDNQVVSTKGERFKDVRNPEAEEMKATYINLKPARKYRFH
As for B1, the binding entry in assay [5] is given as “binds”.

B2: CUEDC2-His (protein, UniProt Q9H467 1-287)
chain: MELERIVSAALLAFVQTHLPEADLSGLDEVIFSYVLGVLEDLGPSGPSEENFDMEAFTEMMEAYVPGFAHIPRGTIGDMMQKLSGQLSDARNKENLQPQSSGVQGQVPISPEPLQRPEMLKEETRSSAAAAADTQDEATGAEEELLPGVDVLLEVFPTCSVEQAQWVLAKARGDLEEAVQMLVEGKEEGPAAWEGPNQDLPRRLRGPQKDELKSFILQKYMMVDSAEDQKIHRPMAPKEAPKKLIRYIDNQVVSTKGERFKDVRNPEAEEMKATYINLKPARKYRFH
As to B2, the binding entry with β-catenin-Flag is “binds”.

B3: CUEDC2, endogenous in MDA-MB-468 cells (protein, UniProt Q9H467 1-287)
chain: MELERIVSAALLAFVQTHLPEADLSGLDEVIFSYVLGVLEDLGPSGPSEENFDMEAFTEMMEAYVPGFAHIPRGTIGDMMQKLSGQLSDARNKENLQPQSSGVQGQVPISPEPLQRPEMLKEETRSSAAAAADTQDEATGAEEELLPGVDVLLEVFPTCSVEQAQWVLAKARGDLEEAVQMLVEGKEEGPAAWEGPNQDLPRRLRGPQKDELKSFILQKYMMVDSAEDQKIHRPMAPKEAPKKLIRYIDNQVVSTKGERFKDVRNPEAEEMKATYINLKPARKYRFH
As to B3, the binding entry in assay [6] was “binds”.
